{"source": "patent US20230218558A1", "about": "“NOVEL THERAPEUTIC USE OF PLEUROMUTILINS” (priority 2020, published 2023)", "system": "HEp2 cells", "assay": "Cell viability of uninfected drug control wells, HEp2 cells, XTT", "details": "read-out: TC50", "note": "Read-outs that look alike come from different tables or passages of the source."}
{"smiles": "Cc1ccc(CCCO)c(NCc2ccc3nc(NCCCN4CCOCC4)n(Cc4nc(C)ccc4O)c3c2)c1", "note": "[TMC353121]", "values": [{"measurement": "CC50", "setting": "Example 3, uninfected HEp2 cells, 6 days", "value": "> 100", "unit": "nM"}, {"measurement": "CC50", "setting": "Example 4, MOI 0.0004", "value": "> 100", "unit": "nM"}, {"measurement": "CC50", "setting": "Example 4, MOI 0.0008", "value": "> 100", "unit": "nM"}, {"measurement": "CC50", "setting": "Example 4, MOI 0.001", "value": "> 100", "unit": "nM"}, {"measurement": "CC50", "setting": "Example 4, MOI 0.003", "value": "> 100", "unit": "nM"}, {"measurement": "CC50", "setting": "Example 5, HEp2 cells, RSV ALONG experiment", "value": "> 1000", "unit": "nM"}, {"measurement": "CC50", "setting": "Example 5, HEp2 cells, RSV B18537 experiment", "value": "> 1000", "unit": "nM"}]}
